# Laboratory results from publication PMC7540616.
# Amino acid sequences for entries named in this document (tags omitted). A change or cut given only in a name is not applied to a line headed by its entry.
# UniProt Q6NS03: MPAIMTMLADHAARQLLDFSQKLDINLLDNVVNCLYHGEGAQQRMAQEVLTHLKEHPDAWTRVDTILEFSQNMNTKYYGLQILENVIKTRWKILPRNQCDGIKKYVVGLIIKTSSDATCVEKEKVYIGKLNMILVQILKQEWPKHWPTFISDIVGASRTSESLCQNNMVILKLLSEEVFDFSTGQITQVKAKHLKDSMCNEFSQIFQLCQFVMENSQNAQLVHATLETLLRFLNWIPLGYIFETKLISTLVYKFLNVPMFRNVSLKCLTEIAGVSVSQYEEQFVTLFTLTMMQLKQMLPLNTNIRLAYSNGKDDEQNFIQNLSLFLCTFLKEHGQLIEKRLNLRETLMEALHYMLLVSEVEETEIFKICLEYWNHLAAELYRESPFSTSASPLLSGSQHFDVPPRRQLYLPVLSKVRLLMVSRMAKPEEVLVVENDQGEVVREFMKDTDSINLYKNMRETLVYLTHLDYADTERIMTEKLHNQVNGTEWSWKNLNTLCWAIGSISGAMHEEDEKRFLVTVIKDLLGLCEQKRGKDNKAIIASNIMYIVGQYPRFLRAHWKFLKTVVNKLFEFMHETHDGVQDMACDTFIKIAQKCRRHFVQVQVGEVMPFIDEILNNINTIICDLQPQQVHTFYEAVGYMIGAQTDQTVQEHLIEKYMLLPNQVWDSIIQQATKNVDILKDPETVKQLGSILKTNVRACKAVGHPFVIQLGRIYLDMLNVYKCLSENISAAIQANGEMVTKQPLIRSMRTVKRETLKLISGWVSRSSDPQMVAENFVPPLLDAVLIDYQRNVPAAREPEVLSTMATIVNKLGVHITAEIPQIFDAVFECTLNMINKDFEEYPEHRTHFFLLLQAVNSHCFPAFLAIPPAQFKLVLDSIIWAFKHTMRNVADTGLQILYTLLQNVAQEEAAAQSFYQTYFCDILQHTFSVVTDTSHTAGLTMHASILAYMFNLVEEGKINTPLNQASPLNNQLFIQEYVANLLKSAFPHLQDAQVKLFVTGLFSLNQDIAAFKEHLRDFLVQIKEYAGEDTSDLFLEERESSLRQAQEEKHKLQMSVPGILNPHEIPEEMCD
# UniProt Q640Z6: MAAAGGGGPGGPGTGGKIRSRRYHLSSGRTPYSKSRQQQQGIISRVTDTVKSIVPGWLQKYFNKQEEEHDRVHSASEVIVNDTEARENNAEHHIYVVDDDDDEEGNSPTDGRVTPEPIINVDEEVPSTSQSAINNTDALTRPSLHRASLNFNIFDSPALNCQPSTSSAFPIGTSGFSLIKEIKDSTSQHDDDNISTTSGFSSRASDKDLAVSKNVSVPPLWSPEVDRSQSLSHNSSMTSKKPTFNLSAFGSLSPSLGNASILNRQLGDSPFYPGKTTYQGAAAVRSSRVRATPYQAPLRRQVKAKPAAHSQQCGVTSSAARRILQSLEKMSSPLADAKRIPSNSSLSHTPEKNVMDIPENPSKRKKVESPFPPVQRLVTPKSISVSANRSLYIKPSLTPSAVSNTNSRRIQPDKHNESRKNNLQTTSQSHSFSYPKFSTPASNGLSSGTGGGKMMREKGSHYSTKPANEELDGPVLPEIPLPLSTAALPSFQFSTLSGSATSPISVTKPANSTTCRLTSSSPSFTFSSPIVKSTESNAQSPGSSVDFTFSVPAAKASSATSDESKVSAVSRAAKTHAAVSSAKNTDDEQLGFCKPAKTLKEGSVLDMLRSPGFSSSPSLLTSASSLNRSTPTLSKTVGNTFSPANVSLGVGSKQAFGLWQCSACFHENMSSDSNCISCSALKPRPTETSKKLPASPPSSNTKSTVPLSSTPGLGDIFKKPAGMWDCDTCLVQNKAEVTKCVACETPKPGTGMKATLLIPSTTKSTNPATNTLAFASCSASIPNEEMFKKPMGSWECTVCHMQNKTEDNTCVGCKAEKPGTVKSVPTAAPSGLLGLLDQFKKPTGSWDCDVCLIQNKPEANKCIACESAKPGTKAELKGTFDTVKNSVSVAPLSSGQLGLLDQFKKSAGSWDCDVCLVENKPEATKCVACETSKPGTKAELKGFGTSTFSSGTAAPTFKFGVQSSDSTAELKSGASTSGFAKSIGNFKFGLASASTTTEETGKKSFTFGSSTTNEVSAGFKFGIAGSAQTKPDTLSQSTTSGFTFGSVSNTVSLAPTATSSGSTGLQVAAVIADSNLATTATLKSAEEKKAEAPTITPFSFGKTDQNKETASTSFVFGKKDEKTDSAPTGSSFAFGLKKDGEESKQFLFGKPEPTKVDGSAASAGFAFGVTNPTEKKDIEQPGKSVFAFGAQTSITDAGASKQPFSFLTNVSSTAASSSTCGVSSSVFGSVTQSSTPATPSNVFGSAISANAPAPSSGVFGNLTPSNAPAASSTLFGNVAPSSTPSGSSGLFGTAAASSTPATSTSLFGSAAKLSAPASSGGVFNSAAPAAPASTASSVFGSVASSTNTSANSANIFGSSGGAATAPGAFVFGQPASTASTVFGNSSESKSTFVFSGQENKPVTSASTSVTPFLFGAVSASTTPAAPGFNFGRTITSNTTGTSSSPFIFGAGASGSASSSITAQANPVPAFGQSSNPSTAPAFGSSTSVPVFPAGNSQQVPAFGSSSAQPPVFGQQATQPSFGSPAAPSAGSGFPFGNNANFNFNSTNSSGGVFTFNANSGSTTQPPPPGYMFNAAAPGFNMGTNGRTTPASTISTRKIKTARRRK
# No constants are given. Whether binding was seen depends on the method and setting. In cells and extracts the contact can be indirect. Binding calls can cover weak binding; strength is not graded here. For part of these data: Sequences can lack the tags named with a protein.
# Target: GST-xCrm1 (Xenopus (from the prefix x in xCrm1)) (UniProt Q6NS03)
# Assay: pull-down; GST, GST-xCrm1 or GST-hExportin-t (50 ug) on BSA-blocked glutathione agarose beads; 25 uL interphase Xenopus egg extract in 500 uL PBS, 4 C, 2 h, with or without 100 ug 6xHis-RanQ69L-GTP; washed with PBS+0.2% NP-40 then PBS; immunoblot (mAb414, anti-Nup133, anti-Nup98); only the target purified
row,binding,Substance
1,binds,Nup153 (from UniProt Q640Z6 1-1605)

# Target: T1, GST-hExportin-t (human (from the prefix h in hExportin-t)) (UniProt O43592)
# T1 sequence: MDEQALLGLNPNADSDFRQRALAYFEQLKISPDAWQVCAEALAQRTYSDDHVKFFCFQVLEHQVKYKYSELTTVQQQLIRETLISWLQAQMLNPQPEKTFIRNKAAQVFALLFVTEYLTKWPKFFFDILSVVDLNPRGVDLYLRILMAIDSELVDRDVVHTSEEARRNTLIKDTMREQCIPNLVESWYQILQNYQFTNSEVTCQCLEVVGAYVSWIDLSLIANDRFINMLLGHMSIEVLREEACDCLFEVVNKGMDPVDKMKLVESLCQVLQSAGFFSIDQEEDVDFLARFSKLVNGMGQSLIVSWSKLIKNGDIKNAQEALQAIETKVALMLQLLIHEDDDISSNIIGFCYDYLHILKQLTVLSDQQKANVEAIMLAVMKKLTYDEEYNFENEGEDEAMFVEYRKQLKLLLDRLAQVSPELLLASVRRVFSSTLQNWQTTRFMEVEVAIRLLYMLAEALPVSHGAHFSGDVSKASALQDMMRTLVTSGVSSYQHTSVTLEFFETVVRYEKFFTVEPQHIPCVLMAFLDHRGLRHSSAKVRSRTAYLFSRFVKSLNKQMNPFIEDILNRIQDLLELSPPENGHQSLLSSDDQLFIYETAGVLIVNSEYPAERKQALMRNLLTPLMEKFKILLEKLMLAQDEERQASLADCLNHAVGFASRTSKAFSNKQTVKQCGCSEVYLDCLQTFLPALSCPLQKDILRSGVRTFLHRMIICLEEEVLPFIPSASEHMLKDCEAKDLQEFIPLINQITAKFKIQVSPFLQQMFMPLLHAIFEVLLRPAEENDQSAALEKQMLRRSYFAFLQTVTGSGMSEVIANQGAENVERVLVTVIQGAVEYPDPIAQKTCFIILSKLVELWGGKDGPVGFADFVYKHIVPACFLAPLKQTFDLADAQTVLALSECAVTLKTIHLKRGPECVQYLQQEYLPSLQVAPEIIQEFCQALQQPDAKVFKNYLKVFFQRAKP
# Assay: as above
row,Substance,binding
1,Nup62,binds
2,Nup133,binds
3,Nup358,binds

# The remaining lines, values ahead:
row,binding,Substance
1,binds,Nup98
2,binds,Nup214
